PubChem BioAssay AID504744, Drosophila RNAi Screening Center – 2011
The deposit covers about 23,000 reagents; this is a random part of those with a known target gene and a result. Of all reagents, 98 (0.43%) were called active. 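Only hit calls are given; the phospho-dAkt signals, z-scores and hit direction were not deposited.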

- Assay: 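Uncover factors, including feedback loops, that control dAkt activation in fly cells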 (primary screen)
- System: Drosophila Kc167 cells
- Reagents: long dsRNA against Drosophila genes, 250 ng dsRNA per well of a 384-well plate
- Time to read-out: 3 days of knock-down, then overnight serum-free starvation before stimulation
- Treatment: bovine insulin at 387 nM for 10 minutes after 12 h without serum
- Measurement: 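Per-well phospho-dAkt level from an in-cell fluorescent antibody stain, divided by a DNA-dye signal; log2 residuals turned into z-scores that take cell number into account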
- Active means: 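Hit in the insulin screen when the two-replicate mean z-score is more extreme than plus or minus 2.5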

CG7627 [DRSC03065] scored inactive.
After knock-down of asRNA:CR31084 [DRSC21649], the screen gave inactive.
After knock-down of CG18814 [DRSC10347], the record shows inactive.
mRpL35 [DRSC14586] gave inactive.
For CG31789 [DRSC01645] the deposit lists inactive.
Knock-down of Root [DRSC15972] came out at: inactive.
Knock-down of Mrtf [DRSC08263] gave: inactive.
Knock-down of Mrtf [DRSC08410] came out at: inactive.
Against Mrtf [DRSC08411], the entry reads inactive.
After knock-down of QC [DRSC09736] the results were inactive.
After knock-down of hry [DRSC11353] the results were inactive.
With knock-down of CG13068 [DRSC09951], the record shows inactive.
Depletion of Ucp4B [DRSC02665] came out at: inactive.
Against CG13630 [DRSC14631], the entry reads inactive.
For PolE2 [DRSC09737], the values are inactive.
After knock-down of Cht7 [DRSC08538], the record shows inactive.
Cht7 [DRSC21783] scored inactive.
After knock-down of Ccp84Ae [DRSC12590], the screen gave inactive.
Knock-down of Tap42 [DRSC02967] gave: inactive.
Against CG11598 [DRSC14331], the values are inactive.
Against Stlk [DRSC22687], the values are inactive.
For AcCoAS [DRSC11477], the entry reads inactive.
Knock-down of AcCoAS [DRSC11603] came out at: inactive.
After knock-down of AcCoAS [DRSC22850] the results were inactive.

Targets above whose target name begins with A or a (4):
asRNA:CR31084 [DRSC21649] → activity call: inactive
AcCoAS [DRSC11477] → activity call: inactive
AcCoAS [DRSC11603] → activity call: inactive
AcCoAS [DRSC22850] → activity call: inactive
